{
  "source": "patent US20090304661A1",
  "about": "“Method And Composition For Proctecting Neuronal Tissue From Damage Induced By Elevated Glutamate Levels” (Yeda Research And Development Co. Ltd. at the Weizmann …, priority 2006, published 2009)",
  "format_in_all_cases": "in vivo, rat",
  "key": {"[1]": {"tested_on": "traumatic brain injury (TBI)", "assay": "Neurological severity score (NSS) after traumatic brain injury"}, "blood Glu levels": {"tested_on": "blood Glu levels", "assay": "Blood Glu levels following traumatic brain injury", "protocol": "FIGS. 3A-C are graphs showing the effects of stress on the spontaneous recovery from traumatic brain injury. FIG. 3A illustrates TBI protocol and times of neurological severity score (NSS) assessment and removal of blood samples (asterisks) […] is a histogram showing the effects of propranolol (10 mg/kg i.p) on the spontaneous recovery of rats submitted to TBI. Propranolol was injected 60 min before the infliction of TBI. The neurological severity scores were measured at 1 and 24 hours following TBI. The scores shown on the ordinate correspond to NSS averages+/−standard error of the mean. Control (n=33); propranolol (n=8). […] Glu and glucose levels were measured at 1, 60, 120 and 150 min following TBI. […]\nFIGS. 4A-C are graphs depicting the effects of a blood Glu scavenger and of Glu on the recovery from TBI. […] Glu levels are expressed as the percent of the basal Glu levels measured before TBI. […] Paired t test: 0 versus 60 min saline p=5.10^−4; 0 versus 60 min OxAc p=0.10^−4; 60 min versus 75 min saline: p=0.59; 60 min versus 75 min OxAc: p=3.10^−3; 75 min versus 90 min saline: p=0.89; 75 min versus 90 min OxAc: p=2.10^−4; C: Time course of the recovery from TBI in saline (n=7) and OxAc-treated (n=7) rats as monitored by NSS values presented here as mean±standard deviation. […]\nGlu spectrofluorometric assay—Glu concentration was measured using the fluorometric method of Graham and Aprison. […]"}, "brain edema": {"tested_on": "brain edema", "assay": "Brain edema (brain water content) following TBI", "conditions": "24 h after TBI; 30 μmoles/min/100 g i.v. versus saline"}},
  "note": "For at least one compound, name, drawing or mass did not settle the structure.",
  "data": [
    {"smiles": "O=C(O)CC(=O)C(=O)O", "note": "[OxAc, oxaloacetate]", "values": [
      {"measurement": "rate of recovery from TBI (NSS time course)", "setting": "[1]; NSS monitored up to 25 days, OxAc versus saline", "result": "significantly faster than that of the saline-treated rats"},
      {"measurement": "recovery from TBI (NSS at 24 h and 48 h)", "setting": "[1]; intravenous 30 min, 30 μmoles/min/100 g (each), after TBI", "result": "recovered best from TBI"},
      {"measurement": "spontaneous partial recovery of rats submitted to TBI", "setting": "[1]; summary statement", "result": "improved"},
      {"measurement": "decrease of blood Glu levels compared with stress alone", "setting": "blood Glu levels", "result": "larger (synergistic) decrease of blood Glu levels than that caused by stress"},
      {"measurement": "brain water content", "setting": "brain edema", "result": "significant reduction of brain water content"}
    ]}
  ]
}
